System: male Long-Evans rats
Assay: Focal cerebral ischemia (right distal MCA cauterization with bilateral temporary CCA occlusion)
Type: in vivo
Settings: for PaCO2 / PaO2 / pH: arterial blood 30 min after MCA occlusion; for MABP Ischemia: average during occlusion; for MABP Steady State: just prior to occlusion; for relative blood flow in the right parietal cortex during occlusion, of the baseline: laser Doppler

For `O=C1NCCc2c(OCCCCN3CCCCC3)cccc21` [DPQ, 3,4-dihydro-5-[4-(1-piperidinyl)-butoxy]-1(2H)-isoquinolinone], the PaCO2 (5 mg/kg-treated group) was 38.0 mm Hg, the PaO2 (5 mg/kg-treated group) was 126 ± 20 mm Hg and the pH (5 mg/kg-treated group) was 7.36. For the same molecule, the “MABP Ischemia” value (5 mg/kg-treated group) was 91 ± 12 mm Hg, the “MABP Steady State” value (5 mg/kg-treated group) was 78 ± 5 mm Hg and the “relative blood flow in the right parietal cortex during occlusion, of the baseline” value (“relative blood flow” below) (5 mg/kg-treated group) was 18.7±7.4%. The PaCO2 (10 mg/kg-treated group) was 39.3 mm Hg, the PaO2 (10 mg/kg-treated group) was 125 ± 16 mm Hg and the pH (10 mg/kg-treated group) was 7.34. The “MABP Ischemia” value (10 mg/kg-treated group) was 90 ± 14 mm Hg, the “MABP Steady State” value (10 mg/kg-treated group) was 80 ± 9 mm Hg and the “relative blood flow” value (10 mg/kg-treated group) was 21.4±7.7%. It also gave a PaCO2 (20 mg/kg-treated group) of 41.3 mm Hg, a PaO2 (20 mg/kg-treated group) of 122 ± 14 mm Hg and a pH (20 mg/kg-treated group) of 7.35. The “MABP Ischemia” value (20 mg/kg-treated group) was 91 ± 12 mm Hg, the “MABP Steady State” value (20 mg/kg-treated group) was 79 ± 10 mm Hg and the PaCO2 (40 mg/kg-treated group) was 39.5 mm Hg. The PaO2 (40 mg/kg-treated group) was 137 ± 17 mm Hg, the pH (40 mg/kg-treated group) was 7.33 and the “MABP Ischemia” value (40 mg/kg-treated group) was 88 ± 12 mm Hg. For the same molecule, the “MABP Steady State” value (40 mg/kg-treated group) was 78 ± 4 mm Hg and the “relative blood flow” value (40 mg/kg-treated group) was 19.3±11.2%.

— US6716828B1, “Compounds, methods and pharmaceutical compositions for treating cellular damage, such as neural or cardiovascular tissue damage” (Guilford Pharmaceuticals, Inc., priority 1999, dated 2004)
